Experimental data reported in publication PMC3146532.
Construct, isoform or probe ends are uncertain for at least one entry. Weaker means in comparison with the reference protein, sequence or condition of that experiment. For some assays here: At least one verdict was read from the data and is not stated in words by the source. For some assays here: Where a protein sequence is shown, tags need not be part of it.

Sequences of proteins named here, by UniProt entry; tags and fusion partners are left off. A change or cut given only in a name is not applied to a line headed by its entry.
UniProt P23025: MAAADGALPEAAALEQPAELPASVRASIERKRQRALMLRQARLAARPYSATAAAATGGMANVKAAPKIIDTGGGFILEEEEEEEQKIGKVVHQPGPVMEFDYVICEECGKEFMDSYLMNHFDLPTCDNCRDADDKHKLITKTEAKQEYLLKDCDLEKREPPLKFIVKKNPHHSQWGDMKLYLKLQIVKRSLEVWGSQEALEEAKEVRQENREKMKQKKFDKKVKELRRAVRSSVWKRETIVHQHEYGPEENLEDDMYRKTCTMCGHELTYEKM
UniProt Q9HAW4: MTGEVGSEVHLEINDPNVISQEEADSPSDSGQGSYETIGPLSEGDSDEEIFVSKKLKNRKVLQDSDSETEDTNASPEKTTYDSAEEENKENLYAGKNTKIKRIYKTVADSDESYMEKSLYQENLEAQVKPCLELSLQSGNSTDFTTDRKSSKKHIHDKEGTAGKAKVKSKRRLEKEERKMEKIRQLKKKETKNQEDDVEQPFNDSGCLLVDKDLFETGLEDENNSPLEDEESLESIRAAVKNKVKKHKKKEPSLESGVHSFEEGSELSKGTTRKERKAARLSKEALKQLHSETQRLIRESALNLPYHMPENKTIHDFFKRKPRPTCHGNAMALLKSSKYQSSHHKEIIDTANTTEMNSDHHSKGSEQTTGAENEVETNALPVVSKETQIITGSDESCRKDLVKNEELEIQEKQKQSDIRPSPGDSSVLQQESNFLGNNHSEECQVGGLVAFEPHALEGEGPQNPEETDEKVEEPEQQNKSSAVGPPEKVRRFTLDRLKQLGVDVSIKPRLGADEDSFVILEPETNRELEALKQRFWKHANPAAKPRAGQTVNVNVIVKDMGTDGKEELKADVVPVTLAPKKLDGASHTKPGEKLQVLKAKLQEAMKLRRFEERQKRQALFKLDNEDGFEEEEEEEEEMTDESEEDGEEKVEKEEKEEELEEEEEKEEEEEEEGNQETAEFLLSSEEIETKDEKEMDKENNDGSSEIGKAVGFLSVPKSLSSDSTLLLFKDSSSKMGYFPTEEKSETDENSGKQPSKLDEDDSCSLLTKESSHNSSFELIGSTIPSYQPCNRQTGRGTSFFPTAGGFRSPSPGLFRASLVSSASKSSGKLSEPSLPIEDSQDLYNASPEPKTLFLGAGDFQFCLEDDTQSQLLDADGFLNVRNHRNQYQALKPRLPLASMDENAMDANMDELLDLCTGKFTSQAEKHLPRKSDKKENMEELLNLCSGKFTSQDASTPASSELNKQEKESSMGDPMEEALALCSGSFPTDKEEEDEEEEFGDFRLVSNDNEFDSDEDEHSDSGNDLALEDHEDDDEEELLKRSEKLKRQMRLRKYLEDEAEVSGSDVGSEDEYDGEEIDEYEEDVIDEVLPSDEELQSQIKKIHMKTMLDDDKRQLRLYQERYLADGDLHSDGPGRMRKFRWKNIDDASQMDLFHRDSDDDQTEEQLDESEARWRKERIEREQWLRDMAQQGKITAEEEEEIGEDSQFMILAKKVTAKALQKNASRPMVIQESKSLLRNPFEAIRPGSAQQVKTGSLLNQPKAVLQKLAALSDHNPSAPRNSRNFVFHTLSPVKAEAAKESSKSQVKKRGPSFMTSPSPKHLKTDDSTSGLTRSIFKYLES
UniProt O14757: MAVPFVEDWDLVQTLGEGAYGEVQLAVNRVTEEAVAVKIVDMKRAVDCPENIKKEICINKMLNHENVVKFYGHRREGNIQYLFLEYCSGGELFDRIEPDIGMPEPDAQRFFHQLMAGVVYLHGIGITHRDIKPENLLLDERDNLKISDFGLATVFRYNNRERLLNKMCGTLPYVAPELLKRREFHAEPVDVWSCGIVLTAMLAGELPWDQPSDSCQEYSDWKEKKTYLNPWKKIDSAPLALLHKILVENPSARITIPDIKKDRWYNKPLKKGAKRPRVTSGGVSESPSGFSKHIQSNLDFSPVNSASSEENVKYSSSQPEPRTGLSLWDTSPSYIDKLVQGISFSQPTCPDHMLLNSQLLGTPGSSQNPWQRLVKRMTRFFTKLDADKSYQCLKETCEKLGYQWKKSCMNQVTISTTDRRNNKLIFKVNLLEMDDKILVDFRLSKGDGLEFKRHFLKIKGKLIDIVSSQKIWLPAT

What was measured:
Experiment in all cases: pull-down
[1] = test system: 9-1-1 complex (FLAG-Rad9-Hus1-Rad1); conditions: 10 mM Tris pH 7.4, 50 mM NaCl (oligo DNA) or 100 mM NaCl (plasmid; 200/300 mM for TopBP1 salt series), 10 ug/ml BSA, 10% glycerol, 0.01% NP-40, room temperature, 30 min, recombinant protein, protein details: FLAG on Rad9
MBP-XPA = MBP-XPA (UniProt P23025); conditions: 10 mM Tris pH 7.4, 50 mM NaCl (oligo DNA) or 100 mM NaCl (plasmid; 200/300 mM for TopBP1 salt series), 10 ug/ml BSA, 10% glycerol, 0.01% NP-40, room temperature, 30 min, recombinant protein, protein details: MBP
[2] = test system: FLAG-Timeless + Tipin-His; conditions: 10 mM Tris pH 7.4, 50 mM NaCl (oligo DNA) or 100 mM NaCl (plasmid; 200/300 mM for TopBP1 salt series), 10 ug/ml BSA, 10% glycerol, 0.01% NP-40, room temperature, 30 min, recombinant protein, protein details: FLAG,His
FLAG-ATRIP = target: T1, FLAG-ATRIP (UniProt Q8WXE1); conditions: without RPA, 10 mM Tris pH 7.4, 50 mM NaCl (oligo DNA) or 100 mM NaCl (plasmid; 200/300 mM for TopBP1 salt series), 10 ug/ml BSA, 10% glycerol, 0.01% NP-40, room temperature, 30 min, recombinant protein, protein details: FLAG
T1 sequence (looked up, limits assumed): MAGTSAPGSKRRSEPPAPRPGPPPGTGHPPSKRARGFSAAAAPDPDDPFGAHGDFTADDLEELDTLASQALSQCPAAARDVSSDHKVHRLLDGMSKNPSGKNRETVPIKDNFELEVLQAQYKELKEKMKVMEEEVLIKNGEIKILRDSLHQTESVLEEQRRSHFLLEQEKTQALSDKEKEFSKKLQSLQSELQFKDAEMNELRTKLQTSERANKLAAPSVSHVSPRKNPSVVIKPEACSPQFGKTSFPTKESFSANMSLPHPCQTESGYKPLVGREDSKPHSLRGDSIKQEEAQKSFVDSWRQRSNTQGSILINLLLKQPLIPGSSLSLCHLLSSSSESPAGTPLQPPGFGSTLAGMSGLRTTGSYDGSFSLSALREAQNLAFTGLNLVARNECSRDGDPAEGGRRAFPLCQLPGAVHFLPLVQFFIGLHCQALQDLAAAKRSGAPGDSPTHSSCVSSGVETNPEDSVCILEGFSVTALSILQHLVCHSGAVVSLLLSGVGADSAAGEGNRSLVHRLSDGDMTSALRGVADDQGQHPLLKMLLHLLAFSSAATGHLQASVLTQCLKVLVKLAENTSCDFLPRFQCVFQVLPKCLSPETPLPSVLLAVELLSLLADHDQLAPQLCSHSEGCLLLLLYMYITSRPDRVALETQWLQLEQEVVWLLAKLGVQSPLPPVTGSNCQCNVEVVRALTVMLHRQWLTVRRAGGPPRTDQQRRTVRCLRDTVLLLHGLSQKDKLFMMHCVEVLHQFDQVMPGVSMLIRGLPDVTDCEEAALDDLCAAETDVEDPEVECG

Tipin-His = target: T2, Tipin-His (UniProt Q9BVW5); conditions: >10-fold less than fork at highest protein, 10 mM Tris pH 7.4, 50 mM NaCl (oligo DNA) or 100 mM NaCl (plasmid; 200/300 mM for TopBP1 salt series), 10 ug/ml BSA, 10% glycerol, 0.01% NP-40, room temperature, 30 min, recombinant protein, protein details: His
T2 sequence (looked up, limits assumed): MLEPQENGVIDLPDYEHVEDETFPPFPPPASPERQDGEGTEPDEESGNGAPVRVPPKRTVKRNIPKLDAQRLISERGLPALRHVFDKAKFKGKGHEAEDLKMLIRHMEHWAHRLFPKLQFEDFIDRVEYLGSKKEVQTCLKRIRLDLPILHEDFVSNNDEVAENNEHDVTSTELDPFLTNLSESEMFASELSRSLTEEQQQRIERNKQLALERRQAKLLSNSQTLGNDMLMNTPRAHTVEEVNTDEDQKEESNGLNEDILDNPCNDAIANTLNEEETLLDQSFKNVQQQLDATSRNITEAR

FLAG-Claspin = FLAG-Claspin (UniProt Q9HAW4); conditions: 10 mM Tris pH 7.4, 50 mM NaCl (oligo DNA) or 100 mM NaCl (plasmid; 200/300 mM for TopBP1 salt series), 10 ug/ml BSA, 10% glycerol, 0.01% NP-40, room temperature, 30 min, recombinant protein, protein details: FLAG
FAAP24-His = target: T3, FAAP24-His (UniProt Q9BTP7); conditions: 10 mM Tris pH 7.4, 50 mM NaCl (oligo DNA) or 100 mM NaCl (plasmid; 200/300 mM for TopBP1 salt series), 10 ug/ml BSA, 10% glycerol, 0.01% NP-40, room temperature, 30 min; recombinant protein; protein details: His (pET21b); label: 5'-biotin on Oligo1
T3 sequence (looked up, limits assumed): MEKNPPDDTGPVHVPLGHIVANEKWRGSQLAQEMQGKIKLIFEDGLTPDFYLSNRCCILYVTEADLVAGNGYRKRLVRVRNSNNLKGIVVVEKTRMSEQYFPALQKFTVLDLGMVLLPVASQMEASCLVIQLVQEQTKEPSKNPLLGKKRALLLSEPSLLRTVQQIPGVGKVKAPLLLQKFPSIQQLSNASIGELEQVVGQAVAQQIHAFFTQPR

His-Chk1 = His-Chk1 (UniProt O14757); conditions: 10 mM Tris pH 7.4, 50 mM NaCl (oligo DNA) or 100 mM NaCl (plasmid; 200/300 mM for TopBP1 salt series), 10 ug/ml BSA, 10% glycerol, 0.01% NP-40, room temperature, 30 min; recombinant protein; protein details: His; label: 5'-biotin on Oligo1
RPA (heterotrimer) = conditions: up to 10-fold less than ssDNA and fork; 10 mM Tris pH 7.4, 50 mM NaCl (oligo DNA) or 100 mM NaCl (plasmid; 200/300 mM for TopBP1 salt series), 10 ug/ml BSA, 10% glycerol, 0.01% NP-40, room temperature, 30 min; recombinant protein; label: 5'-biotin on Oligo1
FLAG-Timeless = target: T4, FLAG-Timeless (UniProt Q9UNS1); conditions: 10 mM Tris pH 7.4, 50 mM NaCl (oligo DNA) or 100 mM NaCl (plasmid; 200/300 mM for TopBP1 salt series), 10 ug/ml BSA, 10% glycerol, 0.01% NP-40, room temperature, 30 min, recombinant protein, protein details: FLAG
T4 sequence (looked up, limits assumed): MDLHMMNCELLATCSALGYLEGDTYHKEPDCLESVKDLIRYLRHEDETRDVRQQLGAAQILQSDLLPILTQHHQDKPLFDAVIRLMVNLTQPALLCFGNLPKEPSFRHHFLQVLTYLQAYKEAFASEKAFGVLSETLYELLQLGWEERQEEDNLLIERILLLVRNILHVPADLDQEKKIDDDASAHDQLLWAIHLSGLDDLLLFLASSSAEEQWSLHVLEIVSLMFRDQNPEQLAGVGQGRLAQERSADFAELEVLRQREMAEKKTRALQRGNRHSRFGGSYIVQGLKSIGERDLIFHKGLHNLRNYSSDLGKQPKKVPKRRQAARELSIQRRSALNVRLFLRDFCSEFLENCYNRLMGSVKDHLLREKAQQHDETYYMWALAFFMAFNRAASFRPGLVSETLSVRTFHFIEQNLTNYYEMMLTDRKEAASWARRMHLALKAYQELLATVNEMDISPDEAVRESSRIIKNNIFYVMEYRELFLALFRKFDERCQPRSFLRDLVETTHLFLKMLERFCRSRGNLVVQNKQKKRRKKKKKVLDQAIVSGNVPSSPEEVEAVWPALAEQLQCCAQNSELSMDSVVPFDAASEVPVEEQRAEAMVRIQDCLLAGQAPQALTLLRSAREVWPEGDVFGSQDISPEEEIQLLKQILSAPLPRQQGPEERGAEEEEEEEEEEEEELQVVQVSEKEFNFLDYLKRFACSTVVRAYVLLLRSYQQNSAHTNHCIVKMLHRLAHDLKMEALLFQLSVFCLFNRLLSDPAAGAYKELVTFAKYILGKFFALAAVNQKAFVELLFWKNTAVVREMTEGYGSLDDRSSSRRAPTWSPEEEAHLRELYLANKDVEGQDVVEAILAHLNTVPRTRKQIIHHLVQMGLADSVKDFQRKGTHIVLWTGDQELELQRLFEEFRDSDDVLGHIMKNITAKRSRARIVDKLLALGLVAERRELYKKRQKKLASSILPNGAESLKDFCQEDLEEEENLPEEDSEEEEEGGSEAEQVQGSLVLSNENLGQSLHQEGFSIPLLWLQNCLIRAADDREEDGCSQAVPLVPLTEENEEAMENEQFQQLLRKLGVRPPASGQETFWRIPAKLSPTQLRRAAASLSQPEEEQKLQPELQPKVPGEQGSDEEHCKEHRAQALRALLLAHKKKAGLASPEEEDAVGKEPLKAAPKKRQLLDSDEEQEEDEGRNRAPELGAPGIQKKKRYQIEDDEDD

[3] = label: 5'-biotin, single-stranded DNA

Measured: binding result

GACGCTGCCGAATTCTGGCTTGCTAGGACATCTTTGCCCACGTTGACCCG (double strand) [dsDNA 50-mer (Oligo1/Oligo3)]
binds more weakly: [1]; label: 5'-biotin on Oligo1 | MBP-XPA; label: 5'-biotin on Oligo1 | [2]; label: 5'-biotin on Oligo1 | FLAG-ATRIP; label: 5'-biotin on Oligo1 | Tipin-His; label: 5'-biotin on Oligo1 | FLAG-Claspin; label: 5'-biotin on Oligo1 | FAAP24-His | His-Chk1 | RPA (heterotrimer) | FLAG-Timeless; label: 5'-biotin on Oligo1

GACGCTGCCGAATTCTGGCTTGCTAGGACATCTTTGCCCACGTTGACCCG [ssDNA 50-mer (Oligo1)]
binds more weakly: [1]; [3] | MBP-XPA; [3] | [2]; [3] | FLAG-ATRIP; [3] | Tipin-His; [3] | FLAG-Claspin; [3] | FLAG-Timeless; [3]
